Each structure is given as a SMILES string. Structures can show the parent of a compound that is named as a salt. The list shows a part of the results. Single values are uncertain, as repeats are few or missing.

This assay concerns hsa-miR-132-3p. Put plainly: miR-132-3p level in NGN2-iNs after compound treatment (TMM-normalised, ComBat batch-corrected) (batch-corrected normalised expression (arbitrary units)); higher = higher miR-132-3p expression. Conditions: 10 µM; 24 h; human iPSC-derived NGN2 neurons (BR43).
In the case of `O=C(c1ccc(F)cc1)N1CCCC(c2nc(-c3ccc(F)cc3)no2)C1` (stereo not drawn), the “miR-132-3p level in NGN2-iNs” value was -0.399.
`CN1CCCC(n2nc(Cc3ccc(Cl)cc3)c3ccccc3c2=O)CC1` (stereo not drawn) [Azelastine HCl]: the “miR-132-3p level in NGN2-iNs” value was 2.51.
Under `CC1=CC(=O)NS(=O)(=O)O1` [Acesulfame Potassium] stands -1.06; under `CN(C)CCC[C@@]1(c2ccc(F)cc2)OCc2cc(C#N)ccc21` [Escitalopram Oxalate], 0.848.
Under `O=Nc1c(-c2c(O)[nH]c3cc(Br)ccc23)[nH]c2ccccc12` stands 0.494; under `CN(NC(=O)CC(=O)NN(C)C(=S)c1ccccc1)C(=S)c1ccccc1` [Elesclomol (STA-4783)], 0.328; under `CCCC(=O)O[C@]1(C(=O)COC(C)=O)CC[C@H]2[C@@H]3C[C@H](F)C4=CC(=O)C=C[C@]4(C)[C@@]3(F)[C@@H](O)C[C@@]21C` [Difluprednate], -0.232.
Under `Nc1ccc(C(=O)NCC(=O)O)cc1` [4-Aminohippuric Acid] stands 0.739; under `COc1ccc(NS(=O)(=O)c2ccc(N)cc2)nn1` [Sulfamethoxypyridazine], 0.367; under `CNc1nc(Nc2cnn(C3CCN(C4COC4)CC3F)c2Cl)ncc1C(F)(F)F` (stereo not drawn), 1.38.
For `OC[C@H]1O[C@@H](Oc2ccc(O)cc2)[C@H](O)[C@@H](O)[C@@H]1O` [Arbutin], the “miR-132-3p level in NGN2-iNs” value amounted to 0.287.
Take `CN(C)CCc1c[nH]c2ccc(Cn3cncn3)cc12` [Rizatriptan Benzoate]: the “miR-132-3p level in NGN2-iNs” value is -0.294.
For `CC(C)C[C@@H](C=O)NC(=O)[C@H](CC(C)C)NC(=O)[C@H](CC(C)C)NC(=O)OCc1ccccc1`, the “miR-132-3p level in NGN2-iNs” value is -0.808.
Consider `CC(=O)Oc1cccc2c1C(=O)c1c(OC(C)=O)cc(C(=O)O)cc1C2=O` [Diacerein], for which the “miR-132-3p level in NGN2-iNs” value worked out at 0.488.
For the compound `CCN(CC)Cc1ccc2cc(COC(=O)Nc3ccc(C(=O)NO)cc3)ccc2c1` [Givinostat (ITF2357)], the “miR-132-3p level in NGN2-iNs” value was -1.13.
Under `N=C(N)NC(=N)N1CCOCC1` [Moroxydine HCl] stands -0.392; under `CC1(C)S[C@@H]2[C@H](NC(=O)[C@H](NC(=O)N3CCNC3=O)c3ccccc3)C(=O)N2[C@H]1C(=O)O` [Azlocillin sodium salt], 0.101.
Consider `CC(C)OC(=O)[C@H](C)N[P@](=O)(OC[C@H]1O[C@@H](n2ccc(=O)[nH]c2=O)[C@](C)(F)[C@@H]1O)Oc1ccccc1` [Sofosbuvir (PSI-7977, GS-7977)], for which the “miR-132-3p level in NGN2-iNs” value was -0.0521.
Under `Nc1nc2c(ncn2[C@@H]2O[C@H](CO)[C@@H](O)[C@H]2O)c(=O)[nH]1` [Guanosine] stands -0.453.
For the compound `CN(C)/N=N/c1[nH]cnc1C(N)=O` [Dacarbazine], the “miR-132-3p level in NGN2-iNs” value was -0.186.
With `Cn1cc(-c2ccc3ncc(Cc4ccc5ncccc5c4)n3n2)cn1`, the “miR-132-3p level in NGN2-iNs” value was -0.812.
With `Cc1cc(NC(=O)Nc2ccc(N(C)C)cc2)c2cc(F)cc(F)c2n1`, the “miR-132-3p level in NGN2-iNs” value is 0.208.
Under `Cc1cn([C@H]2O[C@@H](CO)[C@H](O)[C@H]2F)c(=O)[nH]c1=O` [Clevudine] stands 0.794.
As for `CCOC(=O)[C@H](CCc1ccccc1)N[C@@H](C)C(=O)N1Cc2ccccc2C[C@H]1C(=O)O` [Quinapril HCl], the figure is -0.786.
As for `NC1(C(=O)N[C@@H](CCO)c2ccc(Cl)cc2)CCN(c2ncnc3[nH]ccc23)CC1`, the “miR-132-3p level in NGN2-iNs” value is -0.451.
As for `CC(CCc1ccccc1)NCC(O)c1ccc(O)c(C(N)=O)c1` (stereo not drawn) [Labetalol HCl], the figure is -0.59; as for `O=C(O)c1cccnc1Nc1cccc(C(F)(F)F)c1` [Niflumic acid], -0.48.
In the case of `CC(=O)O[C@]1(C(C)=O)CC[C@H]2[C@@H]3C[C@H](C)C4=CC(=O)C=C[C@]4(C)[C@@]3(F)[C@@H](O)C[C@@]21C` [Fluorometholone Acetate], the “miR-132-3p level in NGN2-iNs” value came to 0.786.
On to `Cc1ccc(-c2csc(NC(=O)c3ccccc3)n2)c(C)c1`, for which the “miR-132-3p level in NGN2-iNs” value stood at 0.356.
As for `Cc1cc(C(C)(C)C)c(O)c(C)c1CC1=NCCN1` [Oxymetazoline HCl], the figure is 1.12.
Regarding `O=c1cc(N2CCOCC2)oc2c(-c3cccc4c3sc3ccccc34)cccc12`, the “miR-132-3p level in NGN2-iNs” value is -0.654.
Under `CC(C)(C(=O)O)c1ccc(C(O)CCCN2CCC(C(O)(c3ccccc3)c3ccccc3)CC2)cc1` (stereo not drawn) [Fexofenadine HCl] stands 0.224.
Regarding `COc1ccc([C@@H]2CC(=O)c3c(O)cc(O[C@@H]4O[C@H](CO[C@@H]5O[C@@H](C)[C@H](O)[C@@H](O)[C@H]5O)[C@@H](O)[C@H](O)[C@H]4O)cc3O2)cc1O` [Hesperidin], the “miR-132-3p level in NGN2-iNs” value came out at 0.934.
Under `COC(c1ccccc1)(c1ccccc1)[C@H](Oc1nc(C)cc(C)n1)C(=O)O` [Ambrisentan] stands 1.2; under `COC(=O)C1=C(C)NC(C)=C(C(=O)OCCN2CCN(C(c3ccccc3)c3ccccc3)CC2)C1c1cccc([N+](=O)[O-])c1` (stereo not drawn) [Manidipine 2HCl], 0.674.
In the case of `CC(C)N(C[C@H]1O[C@@H](n2cnc3c(N)ncnc32)[C@H](O)[C@@H]1O)[C@H]1C[C@@H](CCc2nc3cc(C(C)(C)C)ccc3[nH]2)C1` [Pinometostat (EPZ5676)], the “miR-132-3p level in NGN2-iNs” value worked out at 0.0812.
Under `C[N+]1(C)[C@@H]2CC[C@H]1C[C@@H](OC(=O)C(O)c1ccccc1)C2` (stereo partly drawn) [Homatropine Methylbromide] stands -0.362; under `C[N+]1(C)[C@@H]2C[C@@H](OC(=O)C(O)(c3cccs3)c3cccs3)C[C@H]1[C@@H]1O[C@@H]12` [Tiotropium Bromide hydrate], -0.779; under `CC(C(=O)O)c1ccc2c(c1)Cc1cccnc1O2` (stereo not drawn) [Pranoprofen], -0.49.
Turning to `CC(=O)Nc1ccccc1` [Acetanilide], the “miR-132-3p level in NGN2-iNs” value turned out to be 0.444.
As for `Cc1cc(C(N)=O)ccc1-n1c(CCC(=O)O)ccc1-c1ccc(-n2ccnc2)cc1`, the figure is -0.935; as for `C[C@]12CCC(=O)C=C1CC[C@@H]1[C@@H]2[C@@H](O)C[C@@]2(C)[C@H]1CC[C@]2(O)C(=O)CO` [Hydrocortisone], -4.71; as for `CN(N=O)C(=O)NC1C(O)OC(CO)C(O)C1O` (stereo not drawn) [Streptozotocin (STZ)], -2.85.
As for `Oc1ncnc2[nH]ncc12` [Allopurinol], the figure is 0.719.
Consider `O=C(CCc1ccc(O)cc1)c1c(O)cc(O)cc1O[C@@H]1O[C@H](CO)[C@@H](O)[C@H](O)[C@H]1O` [Phlorizin], for which the “miR-132-3p level in NGN2-iNs” value was -0.311.
With `Cn1cnc(-c2cc3nccc(Oc4ccc(NC(=S)NC(=O)Cc5ccccc5)cc4F)c3s2)c1` [MGCD-265 analog], the “miR-132-3p level in NGN2-iNs” value is 0.69.
In the case of `CO/N=C(\C(=O)N[C@@H]1C(=O)N2C(C(=O)OCOC(=O)C(C)(C)C)=C(/C=C\c3scnc3C)CS[C@H]12)c1csc(N)n1` [Cefditoren Pivoxil], the “miR-132-3p level in NGN2-iNs” value is -1.03.
For the compound `O=C(Nc1ccccc1)c1cc([N+](=O)[O-])ccc1Cl`, the “miR-132-3p level in NGN2-iNs” value is 1.01.
On to `C=C1C(=O)O[C@@H]2/C=C(\C)CC/C=C(\C)CC[C@@H]12` [Costunolide], for which the “miR-132-3p level in NGN2-iNs” value was 0.19.
Under `CCCc1cc(=O)[nH]c(=S)[nH]1` [Propylthiouracil] stands -1.22; under `Cc1ccc(Nc2c(F)cccc2Cl)c(CC(=O)O)c1` [Lumiracoxib], -0.267.
Take `O=c1cc(-c2cccc3c2Sc2ccccc2S3)oc(N2CCOCC2)c1`: the “miR-132-3p level in NGN2-iNs” value was -0.0751.
In the case of `Oc1ccc([C@H]2COc3cc(O)ccc3C2)cc1` [Equol], the “miR-132-3p level in NGN2-iNs” value was found to be 0.984.
As for `N=C(N)c1ccc(OCCCCCOc2ccc(C(=N)N)cc2)cc1` [Pentamidine isethionate], the “miR-132-3p level in NGN2-iNs” value stood at 0.289.
Under `N#Cc1c(O)c2c(-c3ccc(-c4ccccc4O)cc3)csc2[nH]c1=O` stands 0.47; under `CC1(C)S[C@@H]2[C@H](NC(=O)[C@H](N)c3ccc(O)cc3)C(=O)N2[C@H]1C(=O)O` [Amoxicillin], -0.638; under `CC1(C)S[C@@H]2[C@H](NC(=O)[C@H](N)c3ccc(O)cc3)C(=O)N2[C@H]1C(=O)O` [Amoxicillin Sodium], 2.14.
Turning to `Cc1cc(C(=O)NOCCO)c(Nc2ccc(I)cc2F)n(C)c1=O`, the “miR-132-3p level in NGN2-iNs” value was -1.
For the compound `Nc1nc(Cl)nc2c1ncn2[C@H]1C[C@H](O)[C@@H](CO)O1` [Cladribine], the “miR-132-3p level in NGN2-iNs” value was found to be 0.711.
Under `O=C(C=Cc1ccccc1)NC(NC(=S)Nc1ccc(Cl)cc1)C(Cl)(Cl)Cl` (stereo not drawn) stands -0.265.
For `O=C(O)C(O)Cc1ccc(O)c(O)c1` (stereo not drawn) [Sodium Danshensu], the “miR-132-3p level in NGN2-iNs” value is -0.494.
For `Oc1ccc(OC2CCCCO2)cc1` (stereo not drawn) [Deoxyarbutin], the “miR-132-3p level in NGN2-iNs” value was 1.5.
For `Nc1cccc2c1C(=O)N(C1CCC(=O)NC1=O)C2=O` (stereo not drawn) [Pomalidomide], the “miR-132-3p level in NGN2-iNs” value is -0.318.
As for `O=C(/C=C/c1ccccc1)NC(NC(=S)Nc1cccc2cccnc12)C(Cl)(Cl)Cl` (stereo not drawn) [Salubrinal], the figure is -1.06; as for `CC(=O)O[C@@]12CO[C@@H]1C[C@H](O)[C@@]1(C)C(=O)[C@H](O)C3=C(C)[C@@H](OC(=O)[C@H](O)[C@@H](NC(=O)OC(C)(C)C)c4ccccc4)C[C@@](O)([C@@H](OC(=O)c4ccccc4)[C@H]21)C3(C)C` [Docetaxel], 2.13.
Take `Nc1ccn([C@@H]2O[C@H](CO)[C@@H](O)C2(F)F)c(=O)n1` [Gemcitabine]: the “miR-132-3p level in NGN2-iNs” value is -0.54.
As for `COc1ccccc1N1CCN(CCN(C(=O)C2CCCCC2)c2ccccn2)CC1`, the figure is -1.14; as for `CN(C)CCN(Cc1ccccc1)c1ccccn1` [Tripelennamine HCl], -0.933; as for `CC1CNc2c(cccc2S(=O)(=O)N[C@@H](CCCNC(=N)N)C(=O)N2CC[C@@H](C)C[C@@H]2C(=O)O)C1` (stereo partly drawn) [Argatroban], -0.763.
On to `CO[C@H]1C[C@@H]2CC[C@@H](C)[C@@](O)(O2)C(=O)C(=O)N2CCCC[C@H]2C(=O)O[C@H]([C@H](C)C[C@@H]2CC[C@@H](OCCO)[C@H](OC)C2)CC(=O)[C@H](C)/C=C(\C)[C@@H](O)[C@@H](OC)C(=O)[C@H](C)C[C@H](C)/C=C/C=C/C=C/1C` [Everolimus (RAD001)], for which the “miR-132-3p level in NGN2-iNs” value is -0.398.
Under `Cc1cc(C)c(Nc2ccnc(Nc3ccc(C#N)cc3)n2)c(C)c1` [Dapivirine (TMC120)] stands -0.472; under `Cc1cc(/C=C2/SC(=S)NC2=O)c(C)n1-c1cccnc1` [Optovin], -0.789.
`Nc1ncnc2c1ncn2[C@@H]1O[C@H](CO)[C@@H](O)[C@H]1O` [Adenosine]: the “miR-132-3p level in NGN2-iNs” value was -0.325.

For the origin of these results see the supplement of paper PMC10663445.
